Test results: PMC12410181
No constants are given. Whether binding was seen depends on the method and setting. In cells and extracts the contact can be indirect. Some entries that bind do so weakly or less than the wild type.

Amino acid sequences for entries named in this document (tags omitted).
UniProt P06493: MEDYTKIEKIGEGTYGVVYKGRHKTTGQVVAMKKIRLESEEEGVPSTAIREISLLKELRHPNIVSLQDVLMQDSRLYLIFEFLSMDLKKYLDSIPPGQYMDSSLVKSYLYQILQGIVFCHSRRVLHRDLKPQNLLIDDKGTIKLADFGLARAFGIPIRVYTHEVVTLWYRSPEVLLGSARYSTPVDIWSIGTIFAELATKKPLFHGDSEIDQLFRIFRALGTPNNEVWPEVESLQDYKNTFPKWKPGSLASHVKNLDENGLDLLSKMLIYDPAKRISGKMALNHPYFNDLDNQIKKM
UniProt O00571: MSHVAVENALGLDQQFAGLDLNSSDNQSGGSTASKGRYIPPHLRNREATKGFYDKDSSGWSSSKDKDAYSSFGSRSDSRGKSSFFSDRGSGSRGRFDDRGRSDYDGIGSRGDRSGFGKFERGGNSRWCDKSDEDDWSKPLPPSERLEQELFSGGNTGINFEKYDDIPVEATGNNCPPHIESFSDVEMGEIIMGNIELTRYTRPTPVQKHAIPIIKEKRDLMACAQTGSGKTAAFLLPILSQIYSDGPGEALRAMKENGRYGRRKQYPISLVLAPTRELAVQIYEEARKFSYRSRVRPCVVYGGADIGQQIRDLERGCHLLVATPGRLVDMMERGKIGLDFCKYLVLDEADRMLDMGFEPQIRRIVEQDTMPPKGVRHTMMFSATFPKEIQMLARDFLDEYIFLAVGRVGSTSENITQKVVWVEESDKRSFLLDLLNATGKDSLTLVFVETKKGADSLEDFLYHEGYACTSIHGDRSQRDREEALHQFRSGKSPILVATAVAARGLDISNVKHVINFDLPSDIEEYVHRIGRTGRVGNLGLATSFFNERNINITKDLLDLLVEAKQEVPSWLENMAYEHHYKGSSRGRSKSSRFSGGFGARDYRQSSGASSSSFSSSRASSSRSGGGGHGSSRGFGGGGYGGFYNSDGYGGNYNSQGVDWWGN
UniProt O00429: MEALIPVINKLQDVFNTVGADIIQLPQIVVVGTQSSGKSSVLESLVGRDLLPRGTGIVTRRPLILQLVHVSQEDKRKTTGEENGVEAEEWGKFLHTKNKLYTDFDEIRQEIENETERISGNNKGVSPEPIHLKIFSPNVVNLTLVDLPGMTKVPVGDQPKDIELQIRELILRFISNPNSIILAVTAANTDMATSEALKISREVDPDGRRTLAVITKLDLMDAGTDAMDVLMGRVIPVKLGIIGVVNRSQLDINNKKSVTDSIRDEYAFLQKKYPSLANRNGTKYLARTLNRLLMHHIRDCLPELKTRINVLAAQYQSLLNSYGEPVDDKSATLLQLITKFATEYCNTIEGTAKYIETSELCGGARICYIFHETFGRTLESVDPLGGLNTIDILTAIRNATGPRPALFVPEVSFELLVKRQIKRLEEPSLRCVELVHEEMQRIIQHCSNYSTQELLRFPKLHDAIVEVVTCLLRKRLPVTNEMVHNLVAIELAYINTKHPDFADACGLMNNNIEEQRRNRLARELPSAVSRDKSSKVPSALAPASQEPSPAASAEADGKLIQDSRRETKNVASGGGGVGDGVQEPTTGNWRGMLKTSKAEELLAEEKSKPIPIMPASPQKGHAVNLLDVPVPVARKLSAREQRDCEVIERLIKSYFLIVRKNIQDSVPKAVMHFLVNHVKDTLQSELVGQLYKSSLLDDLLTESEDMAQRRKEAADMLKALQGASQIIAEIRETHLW

Experiments:
[1] = molecular target: cyclin-dependent kinase 1 (CDK1), endogenous (human (endogenous in BT549)) (UniProt P06493); assay: co-IP; endogenous proteins of BT549 shCon or shDDX3 cells with or without PA (also RK33 treatment), immunoprecipitated with CDK1 antibody; mild lysis buffer, protein A/G agarose, 4 °C overnight; Western blot for DRP1 and DDX3
[2] = molecular target: DEAD-box polypeptide 3, X-linked (DDX3), endogenous (human (endogenous in BT549)) (UniProt O00571); assay: co-IP; endogenous proteins of BT549 cells (also shCon or shDDX3) treated with or without PA or CCCP, immunoprecipitated with DDX3 antibody; mild lysis buffer, protein A/G agarose, 4 °C overnight; Western blot for DRP1 and CDK1
[3] = molecular target: DEAD-box polypeptide 3, X-linked (DDX3), endogenous (human (endogenous in BT549)) (UniProt O00571); assay: co-IP; endogenous proteins, mitochondrial and cytosol fractions, with or without CCCP; mild lysis buffer (25 mM Tris-HCl pH 7.4, 150 mM NaCl, 1 mM EDTA, 1 % NP-40), protein A/G agarose, 4 °C overnight; Western blot
exogenous DDX3 = exogenous DDX3 (UniProt O00571); assay: co-IP; exogenously expressed DDX3 and DRP1; mild lysis buffer (25 mM Tris-HCl pH 7.4, 150 mM NaCl, 1 mM EDTA, 1 % NP-40), protein A/G agarose, 4 °C overnight; Western blot

binding [1] | binding [2] | binding [3] | binding (exogenous DDX3) | Substance
binds | – | – | – | DEAD-box polypeptide 3, X-linked (DDX3), endogenous (from UniProt O00571 1-662)
binds | binds | binds | – | dynamin-related protein 1 (DRP1), endogenous (from UniProt O00429 1-736)
– | – | – | binds | exogenous DRP1 (HA-DRP1) (from UniProt O00429 1-736)
